Source: patent US6528618B1, “Anti-inflammatory peptides derived from C-reactive protein” (Yeda Research and Development Co. Ltd., priority 1997, dated 2003)
These are yes or no findings as the source states them, for the method shown. Some results given as binding are weak or reduced against the parent protein; the word gives no strength.

Target: T1, human leukocyte elastase (human, UniProt P08246 30-267)
T1 construct: mature; Active enzyme purified from human neutrophils; also called hLE
T1 sequence (looked up): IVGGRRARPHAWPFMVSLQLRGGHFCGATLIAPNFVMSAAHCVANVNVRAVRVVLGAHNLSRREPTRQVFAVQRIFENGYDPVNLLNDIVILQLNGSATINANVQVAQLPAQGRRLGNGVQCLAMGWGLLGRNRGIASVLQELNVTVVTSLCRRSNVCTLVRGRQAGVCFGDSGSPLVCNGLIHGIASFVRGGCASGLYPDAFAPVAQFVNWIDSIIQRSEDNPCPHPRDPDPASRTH
Assay: incubation with enzyme, RP-HPLC degradation profile; enzyme inhibition

- binding: binds
Binder: EILIFWSKDIGYSFT (Synthetic 15-mer; also called pep6) [peptide 6 (CRP62-76)]
